According to patent publication US20080299592A1, “Red-Shifted Luciferase” (priority 2007, published 2008):

B1: TCLuc1: Firefly luciferase with optimized tetracysteine tag fused at the amino terminus, SEQ ID NO:2 (protein)
chain: GPLGSFLNCCPGCCMEPGSMEDAKNIKKGPAPFYPLEDGTAGEQLHKAMKRYALVPGTIAFTDAHIEVDITYAEYFEMSVRLAEAMKRYGLNTNHRIVVCSENSLQFFMPVLGALFIGVAVAPANDIYNERELLNSMGISQPTVVFVSKKGLQKILNVQKKLPIIQKIIIMDSKTDYQGFQSMYTFVTSHLPPGFNEYDFVPESFDRDKTIALIMNSSGSTGLPKGVALPHRTACVRFSHARDPIFGNQIIPDTAILSVVPFHHGFGMFTTLGYLICGFRVVLMYRFEEELFLRSLQDYKIQSALLVPTLFSFFAKSTLIDKYDLSNLHEIASGGAPLSKEVGEAVAKRFHLPGIRQGYGLTETTSAILITPEGDDKPGAVGKVVPFFEAKVVDLDTGKTLGVNQRGELCVRGPMIMSGYVNNPEATNALIDKDGWLHSGDIAYWDEDEHFFIVDRLKSLIKYKGYQVAPAELESILLQHPNIFDAGVAGLPDDDAGELPAAVVVLEHGKTMTEKEIVDYVASQVTTAKKLRGGVVFVDEVPKGLTGKLDARKIREILIKAKKGGKIAV
B2: TCLuc2: Firefly luciferase with optimized tetracysteine tag fused at the carboxy terminus, SEQ ID NO:3 (protein)
chain: GPLGSMEDAKNIKKGPAPFYPLEDGTAGEQLHKAMKRYALVPGTIAFTDAHIEVDITYAEYFEMSVRLAEAMKRYGLNTNHRIVVCSENSLQFFMPVLGALFIGVAVAPANDIYNERELLNSMGISQPTVVFVSKKGLQKILNVQKKLPIIQKIIIMDSKTDYQGFQSMYTFVTSHLPPGFNEYDFVPESFDRDKTIALIMNSSGSTGLPKGVALPHRTACVRFSHARDPIFGNQIIPDTAILSVVPFHHGFGMFTTLGYLICGFRVVLMYRFEEELFLRSLQDYKIQSALLVPTLFSFFAKSTLIDKYDLSNLHEIASGGAPLSKEVGEAVAKRFHLPGIRQGYGLTETTSAILITPEGDDKPGAVGKVVPFFEAKVVDLDTGKTLGVNQRGELCVRGPMIMSGYVNNPEATNALIDKDGWLHSGDIAYWDEDEHFFIVDRLKSLIKYKGYQVAPAELESILLQHPNIFDAGVAGLPDDDAGELPAAVVVLEHGKTMTEKEIVDYVASQVTTAKKLRGGVVFVDEVPKGLTGKLDARKIREILIKAKKGGKIAVFLNCCPGCCMEP

System: tetracysteine-tagged firefly luciferase
Assay: BRET from tetracysteine-tagged firefly luciferase constructs to ReAsH
Type: biochemical
Conditions: for emission wavelength maximum after treatment with ReAsH: in vitro; for shift in the emission wavelength maximum: treatment with ReAsH; for emission centre of tagged luciferase: without acceptor dye
Description: Firefly luciferase fusion proteins with an optimized tetracysteine (TC) tag ([…]; SEQ ID NO:1) (Martin et al., Nature Biotechnology, 2005, 23:1308-14) fused onto either the amino (TCLuc1) or carboxy (TCLuc2) terminus of the luciferase protein (Promega's pGL3 (GenBank No. U47295.2)) were cloned and expressed (see list in Table 1). The proteins were expressed in E. Coli as GST fusions, purified by glutathione agarose affinity chromatography, and eluted as the TC-tagged protein by cleavage with PreScission™ protease.
The emission spectrum is sharpened, such that the maximum at 608 nm is actually higher than the 560 nm peak of luciferase (FIG. 3).
To help evaluate the role of distance and orientation on the BRET efficiency, additional N-terminal fusions of the TC tag were constructed (Table 1). […] The best-performing TCLuc1 fusion was cloned into pcDNA3.1 for expression in mammalian tissue culture cells. This construct lacks a C-terminal peroxisomal targeting sequence, and thus the expressed luciferase will localize to the cytoplasm.

Row | Molecule | emission wavelength maximum after treatment with ReAsH | shift in the emission wavelength maximum | emission centre of tagged luciferase
1 | O=c1ccc2nc3ccc(O)c([As]4SCCS4)c3oc-2c1[As]1SCCS1 [ReAsH, reference compound] | 608 nm | – | –
2 | B1 | 608 nm | about 50 nm | 560 nm
3 | B2 | 608 nm | about 50 nm | 560 nm
